In the supplement of paper PMC7858590:
± gives the standard deviation of the averaged measurements. Over roughly 3,800 compounds, “cell shape (eccentricity) Z-score vs DMSO control” has its median near 1.1; the lowest 2% begin near -4.7. This is one part of the list.

The molecules below were run on human monocyte-derived macrophages (M0) (assay: cell shape (eccentricity) Z-score vs DMSO control; higher = more elongated, M2-like morphology). Conditions: 20 µM; 24 h; macrophage state: M0 (M-CSF).

SMILES | cell shape (Z-score)
CC(OC(=O)c1cccc(O)c1)C(=O)O (centres undefined) | 2.46
C[C@]12CCC(=O)C=C1CC[C@@H]1C2[C@@H](O)C[C@@]2(C)C1CC[C@@H]2C(=O)CO (some centres undefined) | -0.0908
COc1cc(C(=O)OCCCN2CCCN(CCCOC(=O)c3cc(OC)c(OC)c(OC)c3)CC2)cc(OC)c1OC | 0.827 ± 1.5
CCc1cnn2c(NCc3ccc[n+]([O-])c3)cc(N3CCCC[C@H]3CCO)nc12 | 7
CCCCC(=O)O[C@]1(C(=O)CO)[C@@H](C)CC2C3CCC4=CC(=O)C=C[C@]4(C)[C@@]3(F)C(O)C[C@@]21C (some centres undefined) | -2.07
CC(C)=CC1C(C(=O)O)C1(C)C (centres undefined) | 2.13
NC(=NC(=O)c1nc(Cl)c(N)nc1N)NCc1ccccc1 | 1.1
CC1(C)CC[C@]2(C(=O)O[C@@H]3O[C@H](CO)[C@@H](O)[C@H](O)[C@H]3O)CC[C@]3(C)C(=CCC4[C@@]5(C)CC[C@H](OC6O[C@H](CO)[C@@H](O)[C@H](O[C@@H]7O[C@H](CO)[C@@H](O)[C@H](O)[C@H]7O)[C@H]6O)C(C)(C)C5CC[C@]43C)[C@@H]2C1 (some centres undefined) | -0.36 ± 0.054
O=C(O)CCCC=CCC1COC(C(F)(F)F)OC1c1ccccc1O (centres undefined) | 0.695
C=C1C(=O)O[C@@H]2CC=C(CCC(C)O)C(C)C[C@@H]12 (some centres undefined) | 1.71 ± 3.5
C[C@H]1[C@H](C)CC[C@]2(C(=O)O)CC[C@]3(C)C(=CCC4[C@@]5(C)C[C@@H](O)[C@H](O)[C@@](C)(CO)C5[C@H](O)C[C@]43C)[C@H]12 (some centres undefined) | -0.92
CCOc1ccc2ccccc2c1NC(=O)[C@@H]1C(=O)N2C(C(=O)O)C(C)(C)S[C@H]12 (some centres undefined) | 1.89
Clc1ccccc1CN1CCc2sccc2C1 | 3.16
COc1c(-c2ccccc2)oc2c(OC)c(O)cc(O)c2c1=O | 3.67
Nc1ccc(S(=O)(=O)Nc2nccs2)cc1 | 4.41
CC1=COC(O[C@@H]2O[C@H](CO)[C@@H](O)[C@H](O)[C@H]2O)C2C1CC(O)C2CO (some centres undefined) | -1.3
COc1cc([C@H]2OC[C@H]3[C@@H]2CO[C@H]3c2ccc(OC)c(OC)c2)ccc1O | -0.964
O=C(Cc1ccccc1)NO | 0.486
O=C(NC1CC1)c1cc(-c2cccs2)on1 | -1.73
CC1(C)CC[C@]2(C(=O)O[C@@H]3O[C@H](CO)[C@@H](O)[C@H](O)[C@H]3O)CC[C@]3(C)C(=CCC4[C@@]5(C)C[C@H](O)[C@H](O[C@@H]6O[C@H](C(=O)O)[C@@H](O)[C@H](O)[C@H]6O)[C@@](C)(CO)C5CC[C@]43C)C2C1 (some centres undefined) | 0.273
COc1cc(O)cc2c1C(=O)OC(C)C2 (centres undefined) | 3.06
O=C1Nc2ccc(Br)cc2/C1=C/c1cc2c([nH]1)CCCC2 | 1.17
CC(=O)Nc1cccc(-n2c(=O)n(C3CC3)c(=O)c3c(Nc4ccc(I)cc4F)n(C)c(=O)c(C)c32)c1 | -0.597
CC(=O)OCC(=O)[C@@]1(O)CCC2C3CCC4=CC(=O)C=C[C@]4(C)[C@@]3(F)[C@@H](O)C[C@@]21C (some centres undefined) | -1.89
OC1c2ccccc2-c2c3c(cc4c2C1NCC4)OCO3 (centres undefined) | -3.26

In a second layout: results already given
SMILES,cell shape (Z-score)
C=C1C(=O)O[C@@H]2CC=C(CCC(C)O)C(C)C[C@@H]12 (some centres undefined),1.71 ± 3.5
CC(=O)OCC(=O)[C@@]1(O)CCC2C3CCC4=CC(=O)C=C[C@]4(C)[C@@]3(F)[C@@H](O)C[C@@]21C (some centres undefined),-1.89

Next part:

SMILES | cell shape (Z-score)
CN(CCc1ccc(Cl)c(Cl)c1)CC(O)COc1ccc(NS(C)(=O)=O)cc1 (centres undefined) | 3.03
C[C@H]1CN([C@@H](C)CO)C(=O)Cc2cc(NC(=O)CCC(F)(F)F)ccc2O[C@H]1CN(C)S(=O)(=O)c1ccc(Cl)cc1 | -3.66
CC1(C)CC[C@]2(C(=O)O)CC[C@]3(C)C(=CCC4[C@@]5(C)C[C@@H](O)[C@H](O)[C@@](C)(CO)C5CC[C@]43C)[C@@H]2[C@@H]1O (some centres undefined) | -1.63
C[C@@H](NC(=O)c1ncnc(N)c1Cl)c1ncc(C(=O)Nc2cc(C(F)(F)F)c(Cl)cn2)s1 | 2.02
CCc1cc(Cl)c(OC)c(C(=O)NC[C@@H]2CCCN2CC)c1O | 1.6
O=C(CCc1ccccc1)CC(CCc1ccccc1)OC1OC(COC2OC(CO)C(O)C(O)C2O)C(O)C(O)C1O (centres undefined) | 0.466
CCCCNC(=O)c1ccc(Cl)cc1O | 0.898
COc1c(O[C@@H]2O[C@H](C(=O)O)[C@@H](O)[C@H](O)[C@H]2O)cc(O)c2c(=O)cc(-c3ccccc3)oc12 | -0.141
COc1cc2oc(-c3ccccc3)cc(=O)c2c(OC)c1OC | 3.62
CC(CC[C@]1(C)C2CCC=C(CO)[C@]2(C)CC[C@H]1C)CC(=O)O (some centres undefined) | -0.00807
CCCn1c(=O)c2nc(C3CCCC3)[nH]c2n(CCC)c1=O | 3.19
C[C@@H]1CN([C@@H](C)CO)C(=O)c2cccc(NC(=O)Nc3ccccc3)c2O[C@@H]1CN(C)Cc1ccc(C(=O)Nc2ccccc2N)cc1 | -3.29
CC(=O)CCC1C2C(O)C(C(C)C)C(OC(=O)/C=C/c3ccccc3)CC12C (centres undefined) | 1.95
CC1CC(=O)C2=C(CCC3(O)C2C(=O)c2cccc(O)c2C3O)C1 (centres undefined) | 2.98
C[C@@H]1O[C@@H](O[C@H]2[C@H](O[C@H]3CC[C@@]4(C)C(CC[C@]5(C)C4CC=C4C6CC(C)(C)CC[C@]6(C(=O)O[C@@H]6O[C@H](CO[C@@H]7O[C@H](CO)[C@@H](O[C@@H]8O[C@@H](C)[C@H](O)[C@@H](O)[C@H]8O)[C@H](O)[C@H]7O)[C@@H](O)[C@H](O)[C@H]6O)CC[C@]45C)[C@]3(C)CO)OC[C@H](O)[C@@H]2O)[C@H](O)[C@H](O)[C@H]1O (some centres undefined) | -1.37
C=C1/C(=C\C=C2/CCC[C@]3(C)[C@@H]([C@H](C)/C=C/[C@@H](O)C4CC4)CC[C@@H]23)C[C@@H](O)C[C@@H]1O | -1.82
Cn1cc(C(=O)OCC2CCN(CCNS(C)(=O)=O)CC2)c2ccccc21 | 4.04
CCCCC(=O)N(Cc1ccc(-c2ccccc2-c2nn[nH]n2)cc1)[C@H](C(=O)O)C(C)C | 4.67
Nc1ccc(C(=O)Oc2ccccc2)c(O)c1 | 0.623
O=C(/C=C/c1cccc(S(=O)(=O)Nc2ccccc2)c1)NO | 6.89
COc1cc(-c2oc3cc(O)cc(O)c3c(=O)c2O[C@@H]2O[C@H](CO)[C@@H](O)[C@H](O)[C@H]2O)ccc1O[C@@H]1O[C@H](CO)[C@@H](O)[C@H](O)[C@H]1O | 0.723 ± 0.78
O=C1c2cccc(O)c2C(=O)c2c(O)cc(CO)cc21 | 2.58
COc1c(C)c(O)c(C)c(O)c1C(=O)CCc1ccccc1 | 0.153
CC1(C)CC[C@@]2(C(=O)O)C(C1)C1=CCC3[C@@]4(C)CC[C@H](O)C(C)(C)C4CC[C@@]3(C)[C@]1(C)C[C@H]2O (some centres undefined) | 2.77
